Test results: US10647742 (dated 2020)

Experiment: general procedure: Fmoc solid-phase peptide synthesis; Rink amide resin, Rink amide AM Resin or Rink amide MBHA Resin, substitution degree 0.2-1.0 mmol/g; HBTU/HOBt/DIPEA
Conditions: whole synthesis, scale of the general procedure 25.00 g of Rink-Amide resin, 0.20 mmol/g

| Substance | crude HPLC purity (HPLC, 220 nm) | crude yield | final HPLC purity (HPLC, 220 nm) | crude HPLC purity (HPLC, 220 nm, run 1) | crude HPLC purity (HPLC, 220 nm, run 2) | crude HPLC purity (HPLC, 220 nm, run 3) | crude yield (run 1) | crude yield (run 2) | crude yield (run 3) |
| --- | --- | --- | --- | --- | --- | --- | --- | --- | --- |
| H-D-Cys^1-D-Ala^2-D-Arg^3-D-Arg^4-D-Arg^5-D-Ala^6-D-Arg^7-NH2 | 85.2% | 95.24% |  |  |  |  |  |  |  |
| Etelcalcetide |  |  | 98.50% | 81.5% | 80.8% | 81.0% | 96.20% | 98.01% | 95.16% |
